# Assay results as given in PubChem BioAssay AID651640 (Broad Institute, 2012).
# Where “and” joins values, the source holds several entries; their conditions need not be identical. Equal entries are not always repeated. Among all 350,000 compounds or so, about 6,000 (1.7%) were called active. The shares of active, inactive and inconclusive entries below differ from those in the screen. Cut-off read from the data, not from the text of the source: active = CPE inhibition above about 20% (passing the limit was not always enough); inconclusive = no clear call, values can overlap the other calls; tested in BHK-21 cells. Some structures have more than one record in an assay (separate samples or runs), and their calls can disagree.
# Assay: protection of cells from dengue 2 killing – plate reader, single concentration, primary screen (AID 651640);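 note: 0% = median of neutral control wells and 100% = median of positive control wells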
# Conditions: DENV2-infected cells, cytopathic effect rescue, at 9.99 µM, stronger effect = higher value
row,SMILES,CPE inhibition
1,Cc1nnc(N2C(=O)C(O)=C(C(=O)c3ccco3)C2c2ccc(F)cc2)s1 (stereo not given),inconclusive: 47.2%
2,CCCNC(=O)[C@H]1[C@H](CO)[C@H]2Cn3c(ccc(-c4ccccc4F)c3=O)[C@H]2N1C(C)=O,inactive: 13.8%
3,C[C@H]1CCCCO[C@@H](CN(C)S(C)(=O)=O)[C@@H](C)CN([C@@H](C)CO)C(=O)c2cc(N(C)C)ccc2O1,inconclusive: 117%
4,O=C(C[C@@H]1C[C@H]2c3cc(NC(=O)Nc4ccccc4)ccc3O[C@H]2[C@@H](CO)O1)NCC1CC1,inactive: 5.74%
5,C=CCN(CC=C)C(=O)c1cc(Cl)ccc1[N+](=O)[O-],inconclusive: 51.4%
6,CCN(CC)CCNC(=O)C1CCN(S(=O)(=O)c2c(C)noc2/C=C/c2ccccc2F)CC1,inconclusive: 31.6%
7,Cn1c2ccccc2c(=O)c2ccc(C#Cc3ccc(N)cc3)cc21,inconclusive: 21.9%
8,O=C(C[C@H]1C[C@H]2c3cc(NC(=O)NC4CCCC4)ccc3O[C@H]2[C@H](CO)O1)NCCN1CCCCC1,inactive: 11.4%
9,C[C@@H]1CN([C@@H](C)CO)C(=O)c2cc(NS(C)(=O)=O)ccc2O[C@@H](C)CCCCO[C@H]1CN(C)Cc1ccc2c(c1)OCO2,inconclusive: 72.6%
10,Cc1ccc(NS(=O)(=O)c2cc(C(=O)N(C)C3CCN(C)CC3)ccc2Cl)cc1Cl,inactive: 7.94%
11,C[C@@H]1CCCCO[C@@H](CN(C)CC2CC2)[C@H](C)CN([C@@H](C)CO)C(=O)c2cc(NS(=O)(=O)c3ccccc3)ccc2O1,inconclusive: 21.7%
12,Cc1ccc(-n2c(SCC(=O)NC3CCS(=O)(=O)C3)nc3ccccc3c2=O)c(C)c1 (stereo not given),active: 38.3%
13,CCC(=O)Nc1ccc2c(c1)OC[C@H](C)N(Cc1ccncc1)C[C@@H](C)[C@@H](OC)CN(C)C2=O,inconclusive: 22.3%
14,C[C@H]1CCCCO[C@H](CN(C)Cc2ccc3c(c2)OCO3)[C@@H](C)CN([C@@H](C)CO)C(=O)c2cc(NS(=O)(=O)c3cccs3)ccc2O1,inactive: 3.94% and active: 41%
15,Cc1c(C)n(C)c2ccc(C(=O)N3CCN(c4ccccn4)CC3)cc12,inconclusive: 20.9%
16,Cc1ccc(S(=O)(=O)N[C@H]2CC[C@H](CC(=O)NCc3ccccc3F)O[C@@H]2CO)cc1,active: 23.7%
17,CCOc1ccc(NC(=O)CN(C)C(=O)C2CC(=O)N(CCc3ccc(OC)c(OC)c3)C2)cc1OCC (stereo not given),inconclusive: 24.1%
18,Cn1c(CCC(=O)Nc2cc(S(C)(=O)=O)ccc2Cl)nc2cc(S(=O)(=O)N3CCOCC3)ccc21,inactive: -3.26%
19,N#C/C(=C\c1ccc2c(c1)OCCO2)C(=O)NC1CCCCC1,active: 62.2%
20,COC(=O)c1sc(SC)c(S(=O)(=O)C(C)C)c1N/N=C(\C#N)C(=O)c1ccccc1,inconclusive: 34.7%
21,CCC(C)N(C(=O)Cn1nc(C)c([N+](=O)[O-])c1C)C1CCS(=O)(=O)C1 (stereo not given),inconclusive: 48.8%
22,O=[N+]([O-])c1ccc(N2CCCC2)nc1N1CCCC1,inactive: 6.55%
23,O=C(c1cccc(Oc2ccc([N+](=O)[O-])cc2)c1)N1CCOCC1,active: 96.8%
24,COC(=O)C1=C(C)NC(C)=C(C(=O)O[C@@H]2CCCN(Cc3ccccc3)C2)[C@@H]1c1cccc([N+](=O)[O-])c1,inconclusive: 31.3%
25,O=C(COc1ccc2ccccc2c1)NNC(=O)Nc1ccccc1F,inactive: 18.6%

row,SMILES,CPE inhibition
1,Cc1ccc(S(=O)C(c2ccccc2)c2ccccc2)cc1 (stereo not given),inconclusive: 39.4%
2,Cc1cccc(C(=O)NCC(=O)OCC(=O)c2cc(C)n(CC3CCCO3)c2C)c1 (stereo not given),inactive: 1.13%
3,COc1ccc(S(=O)(=O)N2C[C@@H](O)COC[C@@H]3O[C@H](CC(=O)NCCN4CCCCC4)CC[C@H]32)cc1,inactive: -0.464%
4,CCCC(=O)Nc1ccc2c(c1)C(=O)N(C)[C@@H]1CC[C@H](CC(=O)NCC3CCCCC3)O[C@@H]1CO2,inactive: -3.06%
5,Cc1cc(OCC(O)CN2CCCC2)cc(C)c1Cl (stereo not given),inconclusive: 21.7%
6,Cc1ccc(C)c(NC(=O)COC(=O)c2cccc(S(=O)(=O)N3CCCC3)c2)c1,inconclusive: 30.2%
7,CCCNC(=O)c1cc2c(c(-c3cccc(-c4ccccc4F)c3)n1)[C@H](CCO)N(C(=O)CC1CC1)C2,active: 82%
8,COc1ccccc1C(=O)Nc1ccc2c(c1)C(=O)N(C)C[C@H](OC)[C@@H](C)CN(CC1CC1)[C@@H](C)CO2,inconclusive: 21.7%
9,O=C(O)Cn1nncc1-c1ccc(C(F)(F)F)cc1,inconclusive: 28.1%
10,N#C/C(=C(/O)COC(=O)c1ccc(C#N)cc1)c1nc2ccccc2s1,inconclusive: 22.3%
11,C=C(C)c1cc2c(ccc3ccc(=O)oc32)o1,inconclusive: 28.3%
12,CCOC(=O)c1c(NC(=O)C2=C(C)NC(=S)NC2c2ccc(F)cc2)sc(C)c1C (stereo not given),inconclusive: 28.1%
13,CC#CC[N+](C)(C)CCCCCCCCCCCC,inactive: 2.93%
14,CO[C@H]1CN(C)C(=O)c2ccc(NC(=O)c3cnccn3)cc2OC[C@H](C)N(C(=O)C2CC2)C[C@@H]1C,inactive: -0.47%
15,O=C(NCCC1CCCCN1S(=O)(=O)c1ccc(F)cc1)C(=O)NCc1ccccn1 (stereo not given),inconclusive: 41%
16,Cc1cc(C)c(S(=O)(=O)Nc2ccccc2C(=O)OCC(=O)NCc2ccccc2)c(C)c1,inconclusive: 25.4%
17,CC(C)(C)n1nnnc1C(c1cc2ccccc2o1)N1CCOCC1 (stereo not given),active: 107%
18,CO[C@H]1CN(C)C(=O)c2ccc(NS(=O)(=O)c3cccc(F)c3)cc2OC[C@H](C)NC[C@H]1C,inactive: -0.947%
19,CC1(C)Cc2cccc(OCC(=O)N3CCN(c4ccc(F)cc4)CC3)c2O1,inconclusive: 37.7%
20,Oc1ccc(/C=C/c2cc(O)cc(O)c2)cc1,inconclusive: 27.4%
21,COCC(=O)Nc1ccc2c(c1)OC[C@@H](C)N(Cc1cc(F)ccc1F)C[C@@H](C)[C@@H](OC)CN(C)C2=O,active: 30.8%
22,Cc1ccc(C(=O)Nc2ccccc2C(=O)N2CCCC(C)C2)cc1 (stereo not given),inconclusive: 22.5%
23,Fc1cccc(Cl)c1CSc1ccc(-c2ccco2)nn1,inconclusive: 37.2%
24,O=C(Nc1ccc(-c2ccc(N3CCCCC3)nn2)cc1)c1ccco1,inconclusive: 22.4%
25,CC(=O)Nc1ccc(S(=O)(=O)N(C)CC(=O)Nc2cccc(S(=O)(=O)N3CCCC3)c2)cc1,inconclusive: 28.4%

row,SMILES,CPE inhibition
1,C[C@H]1CN([C@@H](C)CO)C(=O)c2c(c3ccccc3n2C)-c2ccccc2CO[C@H]1CN(C)S(=O)(=O)c1ccccc1C#N,inconclusive: 51.3%
2,COc1ccc(CCNC2CC(=O)N(C3CCCCC3)C2=O)cc1OC (stereo not given),active: 26.5%
3,O=C1NC[C@H](CC2CCCCC2)N(CCc2cc(C(F)(F)F)cc(C(F)(F)F)c2)C1=O,inconclusive: 20.7%
4,O=C(Nc1ccc(F)c(Cl)c1)Nn1cnnc1,active: 76.1%
5,Cc1ccc(NC2CCCN(C(=O)c3ccccc3-c3ncc[nH]3)C2)cc1C (stereo not given),inconclusive: 20.9%
6,CCN1CCN(c2cc(C)c3cc(NC(=S)N4CCN(c5ccccc5)CC4)ccc3n2)CC1,inconclusive: 25.9%
7,O=[N+]([O-])c1c(C(Cl)Cl)nn(-c2ccccc2)c1N1CCCC1,inactive: 4.29%
8,Cc1ccc(C(=O)N/C(=C/c2cccs2)C(=O)NCCCn2ccnc2)cc1,active: 30.7%
9,CC(=O)/C(C#N)=C1\NC(=O)C(Cc2cc(Cl)ccc2Cl)S1 (stereo not given),active: 56.8%
10,O=C(O)COc1ccc(/C=C/c2ccc3cccc([N+](=O)[O-])c3n2)cc1,inconclusive: 23.6%
11,O=C(Nc1cc(F)ccc1F)N1CC(=O)N2[C@H](CO)[C@@H](c3ccc(C#CC4CCCC4)cc3)[C@H]2C1,inactive: 4.68%
12,C[C@H](CO)N1C[C@H](C)[C@@H](CN(C)C(=O)c2ccc(F)cc2)Oc2ncc(-c3ccc(F)cc3)cc2C1=O,active: 48%
13,O=S(=O)(c1ccc(C(F)(F)F)cc1)N1CCN(CCc2ccccc2)CC1,inconclusive: 21.6%
14,O=C(Nc1nc2ccccc2[nH]1)c1ccc(OC(F)F)cc1,inactive: -2.08%
15,S=C1N(c2ccccc2)C(c2ccc(Br)cc2)N2CCCN12 (stereo not given),active: 42%
16,O=C(C[C@@H]1C=C[C@H](NS(=O)(=O)c2cccc(F)c2)[C@@H](CO)O1)N1CCCCC1,inactive: 6.36%
17,O=C1[C@@H]2Cc3c([nH]c4ccccc34)C(c3ccc([N+](=O)[O-])cc3)N2C(=O)CN1C1CC1 (stereo not given in full),inconclusive: 21.2%
18,COc1ccc(NC(=O)CN2C(=O)NC3(CCCC3)C2=O)cc1S(=O)(=O)N1CCCCC1,inconclusive: 27.9%
19,COc1cccc(C#Cc2ccc3c(c2)O[C@@H](CN(C)C(=O)CN2CCOCC2)[C@H](C)CN([C@@H](C)CO)S3(=O)=O)c1,inconclusive: 43.8%
20,Cc1ccc([C@@H]2CC=C(C(=O)O)[C@H](c3ccccc3F)N2S(=O)(=O)c2ccccc2C)cc1,inconclusive: 37.7%
21,C[C@H](CO)N1C[C@H](C)[C@@H](CN(C)S(=O)(=O)c2cn(C)cn2)Oc2ccc(NC(=O)Nc3cccc4ccccc34)cc2C1=O,inactive: 2.31%
22,CN1C(=O)c2cccc3c(S(=O)(=O)N4CCCC4C(=O)O)ccc1c23 (stereo not given),inconclusive: 23.1%
23,O=C(C1CCC1)N1CC2(C1)[C@@H](c1ccccc1)[C@@H](CO)N2C(=O)NC1CCCC1,active: 31.2%
24,CCC(=O)NCCc1nc2ccccc2n1CC(=O)c1ccccc1,active: 76.3%
25,O=C(c1ccccn1)N1CC(=O)N2[C@H](C1)[C@H](c1ccc(-c3cccc(F)c3)cc1)[C@@H]2CO,inconclusive: 21.5%
